Source: the supplement of paper PMC10849652
This is one part of the list.

The chains behind the UniProt entries cited, without tags or fusion partners. Where a name states a change or a piece, a line headed by the entry shows the natural chain unless it says otherwise.
UniProt Q99733: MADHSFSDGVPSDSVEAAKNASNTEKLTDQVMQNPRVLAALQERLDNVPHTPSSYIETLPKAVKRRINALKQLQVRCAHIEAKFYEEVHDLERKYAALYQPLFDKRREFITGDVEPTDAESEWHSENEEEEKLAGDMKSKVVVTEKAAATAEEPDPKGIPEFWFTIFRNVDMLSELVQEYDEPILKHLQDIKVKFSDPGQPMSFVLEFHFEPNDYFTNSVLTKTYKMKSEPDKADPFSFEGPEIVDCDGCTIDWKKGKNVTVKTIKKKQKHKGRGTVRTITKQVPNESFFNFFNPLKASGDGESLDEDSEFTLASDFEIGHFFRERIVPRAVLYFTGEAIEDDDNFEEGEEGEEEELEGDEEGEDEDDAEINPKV
UniProt Q53F19: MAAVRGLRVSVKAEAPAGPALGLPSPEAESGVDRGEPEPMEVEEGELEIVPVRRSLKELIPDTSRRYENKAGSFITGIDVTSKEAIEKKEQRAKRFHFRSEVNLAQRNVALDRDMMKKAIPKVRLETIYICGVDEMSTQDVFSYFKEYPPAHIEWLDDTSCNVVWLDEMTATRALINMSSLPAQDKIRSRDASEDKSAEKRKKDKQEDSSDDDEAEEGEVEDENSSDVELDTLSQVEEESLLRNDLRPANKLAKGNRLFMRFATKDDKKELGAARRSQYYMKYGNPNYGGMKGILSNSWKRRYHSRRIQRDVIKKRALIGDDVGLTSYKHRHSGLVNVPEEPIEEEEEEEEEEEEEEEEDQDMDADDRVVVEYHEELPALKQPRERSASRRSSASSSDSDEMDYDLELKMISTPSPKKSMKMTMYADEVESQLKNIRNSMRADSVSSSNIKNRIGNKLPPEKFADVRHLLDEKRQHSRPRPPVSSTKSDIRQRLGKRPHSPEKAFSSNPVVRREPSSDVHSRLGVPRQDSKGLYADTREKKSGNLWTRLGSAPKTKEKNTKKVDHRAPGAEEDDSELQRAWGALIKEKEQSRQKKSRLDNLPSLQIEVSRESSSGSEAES
UniProt Q69YL0: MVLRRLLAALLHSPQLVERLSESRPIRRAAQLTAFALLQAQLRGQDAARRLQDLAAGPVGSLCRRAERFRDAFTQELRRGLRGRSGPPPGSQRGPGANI
UniProt Q9BTX1: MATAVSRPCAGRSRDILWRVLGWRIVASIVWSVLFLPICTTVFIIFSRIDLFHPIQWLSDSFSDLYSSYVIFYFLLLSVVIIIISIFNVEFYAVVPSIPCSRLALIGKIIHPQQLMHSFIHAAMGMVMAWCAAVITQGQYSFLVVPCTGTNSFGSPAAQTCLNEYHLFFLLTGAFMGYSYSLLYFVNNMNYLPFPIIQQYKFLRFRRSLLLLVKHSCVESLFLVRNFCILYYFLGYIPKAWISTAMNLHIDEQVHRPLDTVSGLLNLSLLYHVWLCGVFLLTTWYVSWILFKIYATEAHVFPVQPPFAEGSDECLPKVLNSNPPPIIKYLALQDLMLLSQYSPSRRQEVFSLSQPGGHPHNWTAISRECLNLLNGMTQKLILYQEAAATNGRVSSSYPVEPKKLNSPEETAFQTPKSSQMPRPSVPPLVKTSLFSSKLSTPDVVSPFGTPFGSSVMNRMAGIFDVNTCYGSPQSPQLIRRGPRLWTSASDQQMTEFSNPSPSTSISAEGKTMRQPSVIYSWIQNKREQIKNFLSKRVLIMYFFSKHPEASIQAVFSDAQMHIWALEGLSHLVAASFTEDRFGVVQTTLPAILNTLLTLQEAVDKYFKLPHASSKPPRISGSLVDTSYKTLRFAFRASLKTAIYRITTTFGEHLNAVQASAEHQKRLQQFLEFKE
UniProt Q9UHQ1: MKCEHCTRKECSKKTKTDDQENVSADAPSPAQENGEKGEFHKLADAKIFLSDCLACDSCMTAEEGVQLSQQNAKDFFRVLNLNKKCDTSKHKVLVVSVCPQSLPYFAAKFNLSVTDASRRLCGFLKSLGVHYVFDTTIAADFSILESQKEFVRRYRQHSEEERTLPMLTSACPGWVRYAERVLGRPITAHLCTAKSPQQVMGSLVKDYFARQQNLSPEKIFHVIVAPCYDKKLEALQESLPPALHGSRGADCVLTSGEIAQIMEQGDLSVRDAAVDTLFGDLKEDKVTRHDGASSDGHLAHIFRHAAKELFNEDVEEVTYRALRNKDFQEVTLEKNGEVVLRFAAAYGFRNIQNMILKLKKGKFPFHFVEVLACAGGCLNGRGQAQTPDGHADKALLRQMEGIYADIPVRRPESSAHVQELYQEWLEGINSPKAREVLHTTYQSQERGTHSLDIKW
UniProt Q6N069: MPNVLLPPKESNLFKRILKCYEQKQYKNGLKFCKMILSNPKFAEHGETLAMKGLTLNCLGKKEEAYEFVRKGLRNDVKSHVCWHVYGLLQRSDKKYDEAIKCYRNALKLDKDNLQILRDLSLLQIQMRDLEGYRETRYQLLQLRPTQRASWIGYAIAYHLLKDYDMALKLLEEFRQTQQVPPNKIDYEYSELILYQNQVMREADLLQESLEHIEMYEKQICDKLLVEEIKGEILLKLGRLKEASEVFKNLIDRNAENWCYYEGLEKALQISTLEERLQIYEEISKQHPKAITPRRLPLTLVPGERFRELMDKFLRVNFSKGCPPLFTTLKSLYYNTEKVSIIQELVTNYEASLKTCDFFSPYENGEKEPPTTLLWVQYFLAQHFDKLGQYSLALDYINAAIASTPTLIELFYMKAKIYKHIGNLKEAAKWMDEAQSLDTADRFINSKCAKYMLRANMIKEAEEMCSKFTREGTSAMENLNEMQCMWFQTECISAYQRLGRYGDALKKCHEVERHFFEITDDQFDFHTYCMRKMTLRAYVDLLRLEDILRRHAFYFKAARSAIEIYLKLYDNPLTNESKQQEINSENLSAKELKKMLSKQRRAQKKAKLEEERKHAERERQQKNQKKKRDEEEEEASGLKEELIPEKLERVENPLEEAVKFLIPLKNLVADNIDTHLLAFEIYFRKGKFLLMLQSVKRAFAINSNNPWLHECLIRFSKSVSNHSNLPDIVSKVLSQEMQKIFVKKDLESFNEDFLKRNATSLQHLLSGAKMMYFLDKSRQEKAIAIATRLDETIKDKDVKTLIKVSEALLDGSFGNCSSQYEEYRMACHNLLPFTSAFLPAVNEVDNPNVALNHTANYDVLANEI
UniProt B0I1T2: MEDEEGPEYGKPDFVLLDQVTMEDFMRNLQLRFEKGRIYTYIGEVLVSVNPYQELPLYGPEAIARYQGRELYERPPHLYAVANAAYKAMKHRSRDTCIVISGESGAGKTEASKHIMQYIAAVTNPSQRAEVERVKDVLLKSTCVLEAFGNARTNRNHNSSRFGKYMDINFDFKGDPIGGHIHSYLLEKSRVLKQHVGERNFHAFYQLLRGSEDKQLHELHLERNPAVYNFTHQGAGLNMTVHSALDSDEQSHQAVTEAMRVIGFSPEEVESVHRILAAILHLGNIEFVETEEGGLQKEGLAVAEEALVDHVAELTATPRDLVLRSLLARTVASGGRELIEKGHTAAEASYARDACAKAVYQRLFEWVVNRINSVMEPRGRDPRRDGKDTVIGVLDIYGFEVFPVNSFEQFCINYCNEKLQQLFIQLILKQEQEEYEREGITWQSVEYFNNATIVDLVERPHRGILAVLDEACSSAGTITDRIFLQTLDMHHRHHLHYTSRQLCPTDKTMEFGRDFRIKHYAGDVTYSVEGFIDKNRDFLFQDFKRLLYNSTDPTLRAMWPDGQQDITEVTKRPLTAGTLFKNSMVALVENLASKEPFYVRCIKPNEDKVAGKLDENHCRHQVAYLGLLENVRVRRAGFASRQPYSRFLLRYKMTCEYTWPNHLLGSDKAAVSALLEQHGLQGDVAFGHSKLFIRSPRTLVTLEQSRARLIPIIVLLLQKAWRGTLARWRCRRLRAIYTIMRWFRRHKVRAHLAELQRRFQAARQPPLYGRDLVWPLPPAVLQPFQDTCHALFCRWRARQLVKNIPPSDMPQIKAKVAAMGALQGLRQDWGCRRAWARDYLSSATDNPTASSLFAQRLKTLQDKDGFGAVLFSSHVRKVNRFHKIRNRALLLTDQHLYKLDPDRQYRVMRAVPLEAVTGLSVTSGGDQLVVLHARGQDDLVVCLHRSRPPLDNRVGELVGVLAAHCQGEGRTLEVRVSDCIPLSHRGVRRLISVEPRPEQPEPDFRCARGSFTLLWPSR
UniProt Q8TBE9: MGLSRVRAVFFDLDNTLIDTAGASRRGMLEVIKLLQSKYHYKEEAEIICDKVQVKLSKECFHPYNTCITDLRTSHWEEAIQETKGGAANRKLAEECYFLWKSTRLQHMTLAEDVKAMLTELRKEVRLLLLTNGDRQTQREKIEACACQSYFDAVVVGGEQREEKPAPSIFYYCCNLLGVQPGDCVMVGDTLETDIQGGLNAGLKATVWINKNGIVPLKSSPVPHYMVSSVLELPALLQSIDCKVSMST
UniProt Q14686, whole entry, looked up: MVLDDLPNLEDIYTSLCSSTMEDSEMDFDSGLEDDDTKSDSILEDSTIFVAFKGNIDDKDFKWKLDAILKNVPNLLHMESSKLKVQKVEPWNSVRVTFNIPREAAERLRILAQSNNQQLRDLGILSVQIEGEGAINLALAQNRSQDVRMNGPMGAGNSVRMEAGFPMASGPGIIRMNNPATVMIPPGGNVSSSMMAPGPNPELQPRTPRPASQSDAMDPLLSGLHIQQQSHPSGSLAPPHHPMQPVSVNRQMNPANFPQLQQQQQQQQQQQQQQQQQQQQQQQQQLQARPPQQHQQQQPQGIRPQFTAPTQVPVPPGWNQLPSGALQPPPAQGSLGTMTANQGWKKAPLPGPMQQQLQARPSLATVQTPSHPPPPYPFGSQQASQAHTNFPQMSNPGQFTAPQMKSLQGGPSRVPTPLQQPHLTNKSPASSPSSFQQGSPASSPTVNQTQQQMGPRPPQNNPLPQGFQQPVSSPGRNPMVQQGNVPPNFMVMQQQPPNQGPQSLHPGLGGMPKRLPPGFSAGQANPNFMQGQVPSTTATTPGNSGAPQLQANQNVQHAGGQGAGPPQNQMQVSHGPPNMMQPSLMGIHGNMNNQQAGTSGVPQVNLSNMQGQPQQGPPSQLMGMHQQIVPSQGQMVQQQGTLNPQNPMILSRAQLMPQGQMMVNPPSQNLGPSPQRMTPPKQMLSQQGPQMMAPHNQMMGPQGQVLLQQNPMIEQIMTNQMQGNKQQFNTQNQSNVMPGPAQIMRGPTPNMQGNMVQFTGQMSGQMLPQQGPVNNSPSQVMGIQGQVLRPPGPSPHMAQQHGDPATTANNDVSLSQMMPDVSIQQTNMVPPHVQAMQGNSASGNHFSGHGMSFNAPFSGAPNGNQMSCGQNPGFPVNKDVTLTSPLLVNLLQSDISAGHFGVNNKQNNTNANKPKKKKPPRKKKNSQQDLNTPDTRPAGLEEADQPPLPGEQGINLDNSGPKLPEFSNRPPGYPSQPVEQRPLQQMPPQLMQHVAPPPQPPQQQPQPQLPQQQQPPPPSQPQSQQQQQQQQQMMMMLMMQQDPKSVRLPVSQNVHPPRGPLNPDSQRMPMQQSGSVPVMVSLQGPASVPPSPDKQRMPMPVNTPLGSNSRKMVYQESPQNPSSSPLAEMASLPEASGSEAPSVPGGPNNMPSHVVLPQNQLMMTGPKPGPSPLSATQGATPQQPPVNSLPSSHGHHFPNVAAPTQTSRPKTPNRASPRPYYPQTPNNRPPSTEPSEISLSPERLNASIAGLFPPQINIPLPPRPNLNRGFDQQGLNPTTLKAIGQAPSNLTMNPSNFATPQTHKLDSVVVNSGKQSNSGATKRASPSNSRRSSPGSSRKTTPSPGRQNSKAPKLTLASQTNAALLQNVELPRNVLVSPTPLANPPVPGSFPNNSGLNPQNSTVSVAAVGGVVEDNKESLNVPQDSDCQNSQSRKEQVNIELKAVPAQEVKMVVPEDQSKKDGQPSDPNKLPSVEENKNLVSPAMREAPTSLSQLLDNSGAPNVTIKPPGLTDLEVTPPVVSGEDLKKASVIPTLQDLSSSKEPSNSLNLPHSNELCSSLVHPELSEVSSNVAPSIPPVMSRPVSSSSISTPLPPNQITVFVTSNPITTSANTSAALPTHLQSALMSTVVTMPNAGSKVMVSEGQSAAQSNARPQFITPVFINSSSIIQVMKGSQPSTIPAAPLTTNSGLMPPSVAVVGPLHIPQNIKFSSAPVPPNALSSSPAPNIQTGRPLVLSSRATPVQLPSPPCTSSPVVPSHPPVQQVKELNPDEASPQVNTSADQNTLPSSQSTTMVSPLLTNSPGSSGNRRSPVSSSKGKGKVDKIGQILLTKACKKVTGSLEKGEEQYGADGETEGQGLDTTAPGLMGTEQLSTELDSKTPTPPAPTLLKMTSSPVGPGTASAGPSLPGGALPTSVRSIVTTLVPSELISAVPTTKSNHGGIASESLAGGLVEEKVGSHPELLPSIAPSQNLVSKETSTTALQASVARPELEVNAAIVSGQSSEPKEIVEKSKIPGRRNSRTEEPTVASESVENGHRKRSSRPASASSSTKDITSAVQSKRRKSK

Assays:
Test in all cases: log2 fold change, soluble protein after heating vs DMSO (PISA); higher = thermal stabilisation; K562 lysate, 10 uM; active = over 0.2 and 3.5 SD of the protein, either way, in both replicates (recomputed)
nilotinib = compound: Cc1cn(-c2cc(NC(=O)c3ccc(C)c(Nc4nccc(-c5cccnc5)n4)c3)cc(C(F)(F)F)c2)cn1 [nilotinib]
Outline: (§1)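 Log-two fold change in thermal stability relative to solvent controls is reported from duplicates. For each sample, crude K562 extract from dounce-homogenised pellets in PBS pH 7.4 with 1 mM MgCl2, at 1 mg/mL protein, was treated with 10 μM compound for 30 min. Aliquots heated for 3 min across 48°C-58°C were pooled, brought to 0.5% NP-40 at 4°C and cleared at 21,000xg for 90 min. The supernatant was quantified by TMTpro 16plex LC-MS/MS with channel sums equalised.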

[1] = compound: Cc1nc(Nc2n[nH]c3c2CN(C(=O)N[C@H](CN(C)C)c2ccccc2)C3(C)C)c2sccc2n1
Outline: as §1

dasatinib = compound: Cc1nc(Nc2ncc(C(=O)Nc3c(C)cccc3Cl)s2)cc(N2CCN(CCO)CC2)n1 [dasatinib]
Outline: as §1

[2] = compound: Cc1ncc(-c2ccnc(Nc3ccc(S(C)(=O)=O)cc3)n2)n1C(C)C
Outline: as §1

[3] = compound: Cn1cc(-c2ccc3c(c2)CCN3C(=O)Cc2cccc(C(F)(F)F)c2)c2c(N)ncnc21
Outline: as §1

quisinostat = compound: Cn1cc(CNCC2CCN(c3ncc(C(=O)NO)cn3)CC2)c2ccccc21 [quisinostat]
Outline: as §1

tipifarnib = compound: Cn1cncc1[C@@](N)(c1ccc(Cl)cc1)c1ccc2c(c1)c(-c1cccc(Cl)c1)cc(=O)n2C [tipifarnib]
Outline: as §1

[4] = compound: NC(=O)Nc1cc(-c2cccc(F)c2)sc1C(=O)N[C@H]1CCCNC1
Outline: as §1

[5] = compound: NC(=O)c1cnc(N[C@@H]2CCCC[C@@H]2N)nc1Nc1cccc(-n2nccn2)c1
Outline: as §1

[6] = compound: NC1(c2ccc(-c3nc4ccn5c(=O)[nH]nc5c4cc3-c3ccccc3)cc2)CCC1
Outline: as §1

[7] = compound: NCC(=O)Nc1ccc(-n2nc(C(F)(F)F)cc2-c2ccc3c(ccc4ccccc43)c2)cc1
Outline: as §1

vorinostat = compound: O=C(CCCCCCC(=O)Nc1ccccc1)NO [vorinostat]
Outline: as §1

silmitasertib = compound: O=C(O)c1ccc2c(c1)nc(Nc1cccc(Cl)c1)c1ccncc12 [silmitasertib]
Outline: as §1

[8] = compound: O=C1NC(=O)C(c2cnc3ccccn23)=C1c1cn2c3c(cc(F)cc13)CN(C(=O)N1CCCCC1)CC2
Outline: as §1

entospletinib = compound: c1cn2cc(-c3ccc4cn[nH]c4c3)nc(Nc3ccc(N4CCOCC4)cc3)c2n1 [entospletinib]
Outline: as §1

Target | log2 fold change (nilotinib) | log2 fold change [1] | log2 fold change (dasatinib) | log2 fold change [2] | log2 fold change [3] | log2 fold change (quisinostat) | log2 fold change (tipifarnib) | log2 fold change [4] | log2 fold change [5] | log2 fold change [6] | log2 fold change [7] | log2 fold change (vorinostat) | log2 fold change (silmitasertib) | log2 fold change [8] | log2 fold change (entospletinib)
NAPB (UniProt Q9H115) | inactive: 0.005 | inactive: 0.073 | inactive: 0.038 | inactive: -0.018 | inactive: 0.033 | inactive: 0.017 | inactive: -0.06 | inactive: 0.024 | inactive: -0.032 | inactive: 0.005 | inactive: 0.14 | inactive: 0.022 | inactive: -0.047 | inactive: 0.001 | inactive: -0.016
NCK2 (UniProt O43639) | inactive: 0.024 | inactive: 0.007 | inactive: 0.011 | inactive: -0.051 | inactive: 0.018 | inactive: 0.009 | inactive: -0.04 | inactive: -0.006 | inactive: -0.012 | inactive: -0.052 | inactive: -0.049 | inactive: -0.036 | inactive: 0.005 | inactive: -0.101 | inactive: 0.015
NACC2 (UniProt Q96BF6) | inactive: -0.033 | inactive: -0.393 | inactive: 0.023 | inactive: -0.086 | inactive: 0.068 | inactive: 0.168 | inactive: -0.064 | inactive: -0.142 | – | inactive: 0.126 | inactive: -0.133 | inactive: -0.403 | inactive: 0.171 | inactive: -0.193 | inactive: 0.18
NAP1L4 isoform 2 (UniProt Q99733) | inactive: 0.041 | inactive: -0.007 | inactive: 0.006 | inactive: -0.031 | inactive: -0.003 | inactive: 0.009 | inactive: -0.009 | inactive: 0 | inactive: 0.007 | inactive: -0.009 | inactive: -0.042 | inactive: 0.11 | inactive: 0.013 | inactive: -0.002 | inactive: -0.01
MYO9B (UniProt Q13459) | inactive: 0.017 | inactive: -0.003 | inactive: -0.01 | inactive: -0.026 | inactive: 0.017 | inactive: -0.018 | inactive: -0.002 | inactive: 0.026 | inactive: 0.015 | inactive: 0.004 | inactive: 0.043 | inactive: -0.135 | inactive: 0.046 | inactive: -0.038 | inactive: -0.018
NCBP3 (UniProt Q53F19) | inactive: 0.109 | inactive: -0.019 | inactive: 0.057 | inactive: 0.154 | inactive: 0 | inactive: -0.006 | inactive: -0.068 | inactive: 0.019 | inactive: 0.043 | inactive: -0.052 | inactive: 0.108 | inactive: -0.029 | inactive: -0.101 | inactive: -0.101 | inactive: -0.022
NAT1 (UniProt P18440) | inactive: -0.005 | inactive: -0.017 | inactive: -0.058 | inactive: -0.04 | inactive: 0.097 | inactive: -0.1 | inactive: -0.006 | inactive: 0.017 | inactive: -0.018 | inactive: -0.037 | inactive: -0.049 | inactive: 0.144 | active: 0.275 | inactive: 0.032 | inactive: -0.04
NCBP2AS2 (UniProt Q69YL0) | inactive: -0.078 | inactive: 0.03 | inactive: -0.09 | inactive: 0.03 | inactive: 0.017 | inactive: 0.006 | inactive: -0.107 | inactive: 0.007 | inactive: -0.049 | inactive: -0.018 | inactive: -0.103 | inactive: 0.133 | inactive: 0.082 | inactive: 0.034 | inactive: -0.064
NCALD (UniProt P61601) | inactive: 0.052 | inactive: -0.102 | inactive: 0.002 | inactive: 0.007 | inactive: 0.014 | inactive: 0.061 | inactive: -0.083 | inactive: -0.008 | inactive: -0.005 | inactive: 0.057 | inactive: -0.051 | inactive: -0.073 | inactive: -0.002 | inactive: 0.031 | inactive: 0.017
NDC1 (UniProt Q9BTX1) | inactive: -0.019 | inactive: -0.006 | inactive: -0.071 | inactive: -0.018 | inactive: 0.052 | inactive: -0.03 | inactive: 0.009 | inactive: 0 | inactive: -0.01 | inactive: -0.028 | inactive: 0.013 | inactive: -0.134 | inactive: -0.016 | inactive: -0.012 | inactive: -0.016
NARF (UniProt Q9UHQ1) | inactive: -0.029 | inactive: 0.011 | inactive: 0.01 | inactive: -0.031 | inactive: 0.014 | inactive: -0.03 | inactive: -0.062 | inactive: 0.017 | inactive: -0.079 | inactive: 0.005 | inactive: -0.05 | active: -0.243 | inactive: -0.016 | inactive: -0.008 | inactive: -0.054
MYO1D (UniProt O94832) | inactive: 0.002 | inactive: -0.01 | inactive: -0.036 | inactive: -0.006 | inactive: 0.016 | inactive: -0.031 | inactive: -0.004 | inactive: 0.05 | inactive: 0 | inactive: -0.042 | inactive: 0.046 | active: -0.418 | inactive: 0.012 | inactive: -0.027 | inactive: -0.002
NCKAP5L (UniProt Q9HCH0) | inactive: 0 | inactive: 0.02 | inactive: 0.021 | inactive: 0.01 | inactive: -0.065 | inactive: -0.021 | inactive: -0.079 | inactive: 0.037 | inactive: 0.034 | inactive: -0.07 | – | inactive: -0.129 | inactive: 0.067 | inactive: -0.007 | inactive: 0.011
NAGPA (UniProt Q9UK23) | inactive: 0.021 | inactive: 0.181 | inactive: -0.117 | inactive: -0.205 | inactive: 0.115 | – | inactive: -0.495 | – | inactive: 0.102 | inactive: 0.008 | inactive: 0.132 | inactive: 0.082 | inactive: -0.059 | – | –
NAA16 (UniProt Q6N069) | inactive: 0.068 | inactive: -0.139 | inactive: -0.042 | inactive: 0.039 | inactive: 0.071 | – | inactive: -0.015 | – | inactive: 0.08 | – | inactive: 0.43 | – | – | – | inactive: -0.018
MYO1G (UniProt B0I1T2) | inactive: 0.076 | inactive: -0.35 | inactive: 0.167 | inactive: 0.065 | inactive: -0.061 | inactive: 0.096 | inactive: 0.063 | inactive: -0.027 | inactive: -0.069 | inactive: 0.156 | – | inactive: -0.391 | inactive: -0.109 | inactive: -0.281 | inactive: -0.094
NANP (UniProt Q8TBE9) | inactive: 0.008 | inactive: -0.043 | inactive: -0.064 | inactive: -0.024 | inactive: -0.029 | inactive: -0.007 | inactive: 0.061 | inactive: 0.006 | inactive: -0.067 | inactive: 0.117 | inactive: -0.07 | inactive: -0.158 | inactive: 0.179 | inactive: -0.043 | inactive: 0.019
NCOA6 (UniProt Q14686) | inactive: 0.023 | inactive: -0.067 | inactive: 0.027 | inactive: 0 | inactive: 0.034 | inactive: 0.003 | inactive: -0.009 | inactive: 0.015 | inactive: -0.007 | inactive: -0.007 | inactive: 0.026 | inactive: -0.018 | inactive: -0.007 | inactive: 0.009 | inactive: -0.04

Some entries already given with just log2 fold change (vorinostat) and log2 fold change (nilotinib):

| Target | log2 fold change (vorinostat) | log2 fold change (nilotinib) |
| --- | --- | --- |
| MYO1G (UniProt B0I1T2) | inactive: -0.391 | inactive: 0.076 |
| NANP (UniProt Q8TBE9) | inactive: -0.158 | inactive: 0.008 |
